Reference: patent US10406218B2 (priority 2014, dated 2019)
Where two headings read alike, the source gives them in different places.

Test system: Th* (CXCR3+CCR6+CCR4-) cells
Design: species or system human
[1] = gene down in Th* cells (TRUE/FALSE)
[2] = gene up in Th* cells (TRUE/FALSE)

Substance | th* down [1] | th* up [2] | th* down (gene down in Th* cells vs. other Th subsets (TRUE/FALSE)) | th* up (gene up in Th* cells vs. other Th subsets (TRUE/FALSE))
CCL4 | FALSE | FALSE |  | 
CCL20 | FALSE | TRUE |  | 
DAB1 |  |  | FALSE | TRUE
